According to patent US20230133243A1, “CONDITIONING REGIMENS FOR IN VIVO GENE THERAPY” (Fred Hutchinson Cancer Center, priority 2020, published 2023):
For at least one compound, name, drawing or mass did not settle the structure.

Assay: Cytokine response to adenoviral vector in dexamethasone-treated mice
Type: in vivo
Conditions: adenoviral vector administration

Compound: C[C@@H]1C[C@H]2[C@@H]3CCC4=CC(=O)C=C[C@]4(C)[C@@]3(F)[C@@H](O)C[C@]2(C)[C@@]1(O)C(=O)CO [dexamethasone]
- cytokine response: blunted cytokine response
